# According to paper doi:10.1101/477745:
# Sequences of proteins named here, by UniProt entry; tags and fusion partners are left off.
# UniProt Q2FF45, whole entry: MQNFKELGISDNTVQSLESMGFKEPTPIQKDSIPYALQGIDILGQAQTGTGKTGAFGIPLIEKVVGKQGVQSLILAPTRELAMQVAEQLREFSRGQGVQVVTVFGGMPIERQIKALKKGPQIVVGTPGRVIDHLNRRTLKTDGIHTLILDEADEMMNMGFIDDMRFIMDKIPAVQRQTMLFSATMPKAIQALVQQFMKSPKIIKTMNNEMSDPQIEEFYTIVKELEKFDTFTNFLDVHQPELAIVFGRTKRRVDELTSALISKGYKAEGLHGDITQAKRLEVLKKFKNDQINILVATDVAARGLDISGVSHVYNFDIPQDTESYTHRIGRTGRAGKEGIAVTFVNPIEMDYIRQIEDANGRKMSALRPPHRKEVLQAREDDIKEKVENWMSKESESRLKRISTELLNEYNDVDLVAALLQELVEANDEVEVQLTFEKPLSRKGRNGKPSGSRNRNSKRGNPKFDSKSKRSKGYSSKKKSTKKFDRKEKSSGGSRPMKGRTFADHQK
# Results are given in words; binding and its absence hold for the method and conditions named. For part of these data: Binding seen in cells or lysates may run through a third protein. Some entries that bind do so weakly or less than the wild type. For part of these data: Sequences can lack the tags named with a protein.
# Experiments:
# Era-T25 (S. aureus) = molecular target: T1, Era-T25 (S. aureus) (UniProt Q2FGF6); assay: two-hybrid
# T1 sequence: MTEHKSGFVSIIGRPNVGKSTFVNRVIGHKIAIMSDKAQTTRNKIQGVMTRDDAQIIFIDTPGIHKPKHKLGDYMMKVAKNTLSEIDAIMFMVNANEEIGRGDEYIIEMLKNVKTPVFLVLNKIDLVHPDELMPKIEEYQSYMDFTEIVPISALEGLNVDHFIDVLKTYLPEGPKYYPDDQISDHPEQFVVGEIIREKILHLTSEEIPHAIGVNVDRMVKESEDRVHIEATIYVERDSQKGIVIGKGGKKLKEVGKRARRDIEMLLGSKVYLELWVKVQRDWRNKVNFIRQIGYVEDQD
# [1] = molecular target: T2, Era fused to SB (small bit of luciferase) (S. aureus) (UniProt Q2FGF6); assay: split reporter
# T2 sequence: T1 sequence
# T25-Era (S. aureus) = molecular target: T3, T25-Era (S. aureus) (UniProt Q2FGF6); assay: two-hybrid
# T3 sequence: T1 sequence
# [2] = molecular target: T4, G domain of Era (1-180) fused to SB (S. aureus) (UniProt Q2FGF6); assay: split reporter
# T4 sequence: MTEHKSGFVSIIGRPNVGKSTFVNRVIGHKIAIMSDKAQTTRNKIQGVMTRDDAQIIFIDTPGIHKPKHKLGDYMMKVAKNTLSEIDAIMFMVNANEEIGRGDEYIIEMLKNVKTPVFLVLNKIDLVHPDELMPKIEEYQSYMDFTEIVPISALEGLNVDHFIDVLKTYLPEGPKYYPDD
Substance,binding (Era-T25 (S. aureus)),other results
Cdd (bacterial two-hybrid fusion) (from UniProt A0A0H2XFN0 1-134),no binding,
Cdd (split luciferase fusion) (from UniProt A0A0H2XFN0 1-134),,binding [1]: no binding
CshA-T18 (from UniProt Q2FF45 1-506),binds,binding (T25-Era (S. aureus)): binds
DgkA (bacterial two-hybrid fusion) (from UniProt A0A0H2XF69 1-114),no binding,
full-length CshA fused to LB (large bit of luciferase) (from UniProt Q2FF45 1-506),,binding [2]: binds
